Laboratory results as given in PubChem BioAssay AID1259354 (Paczesny and Yang Labs, IUPUI and University of Michigan, 2018).
Values joined by “and” are separate entries in the source; they are usually repeats but may differ in a detail not shown here. Identical values can stand only once. Among all 78,000 compounds or so, about 1,800 (2.3%) were called active. The inconclusive results got no clear call from the source; some entries with a clear call stand among them for comparison. No stated cut-off is given here; in the data, active means inhibition above about 30%; inconclusive means mostly about 10% to 28%; inactive means weaker than that.

Protein sequences, listed by entry. Tags and fused reporters are not part of them. Lines headed by an entry give the natural chain unless they say otherwise; changes in a name come on top.
UniProt Q01638: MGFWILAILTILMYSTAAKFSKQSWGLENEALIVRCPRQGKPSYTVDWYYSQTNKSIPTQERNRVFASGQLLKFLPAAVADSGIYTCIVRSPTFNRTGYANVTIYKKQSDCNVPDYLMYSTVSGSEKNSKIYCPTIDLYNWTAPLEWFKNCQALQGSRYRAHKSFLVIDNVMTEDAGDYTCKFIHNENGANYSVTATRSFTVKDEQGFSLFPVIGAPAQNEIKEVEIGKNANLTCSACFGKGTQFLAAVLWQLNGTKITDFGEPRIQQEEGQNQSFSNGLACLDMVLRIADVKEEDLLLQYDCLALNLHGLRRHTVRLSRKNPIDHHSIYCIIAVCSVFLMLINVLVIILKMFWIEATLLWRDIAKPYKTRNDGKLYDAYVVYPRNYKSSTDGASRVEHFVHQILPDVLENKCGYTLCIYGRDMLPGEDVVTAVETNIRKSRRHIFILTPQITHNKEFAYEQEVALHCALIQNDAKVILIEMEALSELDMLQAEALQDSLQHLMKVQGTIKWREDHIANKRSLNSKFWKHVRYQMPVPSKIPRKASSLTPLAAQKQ

The molecules below were run against Interleukin-1 receptor-like 1 (Homo sapiens) (UniProt Q01638) (assay: blocks human ST2 binding to IL-33, primary screen, biochemical, AlphaLISA (AID 1259354)). Details: AlphaLISA ST2-Fc/biotin-IL-33 interaction, 1 h; at 17 µM, active compounds read high.
For `COc1cccc(C2C=C(Nc3ccc(C)cc3)C(=O)N2c2ccc(C)cc2)c1` (stereo not given), the inhibition was “inactive”.
In the case of `Cc1ccc(NC(=O)CN2CCCC(OCc3ccccn3)C2)cc1C` (stereo not given), the inhibition is reported as inconclusive: 14%.
`Cc1cccc(NC(=O)c2ccc(=O)n(Cc3cccc(F)c3)c2)c1` was tested, and the inhibition was “inactive”.
For `CCCC(=O)Nc1c2c(nn1-c1ccc(C)cc1)CSC2`, the inhibition was “inactive”.
In the case of `C=CCNCCCOc1ccc(OCc2ccccc2)cc1`, the inhibition is reported as inconclusive: 16%.
With `Cn1nc([N+](=O)[O-])nc1Oc1ccc(C(C)(C)C)cc1` the inhibition was inconclusive: 23%.
In the case of `O=C(CN1C(=O)c2ccccc2C1=O)Oc1cccc2cccnc12`, the inhibition is reported as “inactive”.
`O=C(NC1CC1)C1CCCN(C2CCN(CC3CCCCC3)CC2)C1` (stereo not given) was tested, and the inhibition was “inactive”.
In the case of `CCOc1ccc2nc(CNC(C)c3cnn(-c4ccccc4)c3C)ccc2c1` (stereo not given), the inhibition is reported as “inactive”.
With `O=C(COc1ccc2c(c1)OCO2)Nc1ccccc1F` the inhibition was inconclusive: 13%.
`COc1ccc(/C=C/CN2CCN(c3ncc(Cl)cn3)CC2)cc1` was tested, and the inhibition was inconclusive: 18%.
For `COC(=O)[C@@H]1Cc2ncn(C(C)C)c2CN1S(=O)(=O)c1cccc2c(N(C)C)cccc12`, the inhibition was inconclusive: 12%.
In the case of `O=C(O)c1ccc(C2CCN(Cc3cccc(-n4cccn4)c3)C2)cc1` (stereo not given), the inhibition is reported as “inactive”.
In the case of `COc1ccc(CNC(=O)CC[C@H]2CNC(=O)[C@@H]3[C@@H](CCN3CC(C)(C)C)N2C)cc1`, the inhibition is reported as inconclusive: 18%.
`Cn1c(SCC(=O)N2CCOCC2)nc2c([nH]c3ccccc32)c1=O` was tested, and the inhibition was inconclusive: 13%.
With `CCOc1ccc(C2Sc3ccccc3NC3=C2C(=O)OC3)cc1` (stereo not given) the inhibition was inconclusive: 11%.
`NC1=NC(=O)/C(=C\c2cc3ccccc3nc2N2CCCCC2)S1` was tested, and the inhibition was “inactive”.
In the case of `Cc1ccc(C2=C/C(=C3/c4ccccc4-c4ncccc43)C(=O)O2)cc1C`, the inhibition is reported as inconclusive: 25%.
`Cc1ccc(-c2cc(N3CCN(S(=O)(=O)c4ccc(C(C)C)cc4)CC3)ncn2)cc1` was tested, and the inhibition was “inactive”.
`Cc1ccc(C(=O)O)c(C(=O)Nc2nc3ccc(S(C)(=O)=O)cc3s2)c1` was tested, and the inhibition was “inactive”.
With `CN(Cc1ncc[nH]1)Cc1cccn1S(=O)(=O)c1ccccc1` the inhibition was inconclusive: 13%.
In the case of `CN(C)[C@@H]1C[C@@H](CO)N(C(=O)c2cccc3c(=O)c4ccccc4[nH]c23)C1`, the inhibition is reported as inconclusive: 15%.
With `O=C(NC1CCCC1)c1cccn2c(=O)c3c4c(sc3nc12)CCCC4` the inhibition was inconclusive: 17%.
`CSc1ccc(Cl)c(C(=O)NCCc2ccc(S(=O)(=O)N3CCCCC3)cc2)c1` was tested, and the inhibition was inconclusive: 12%.
In the case of `O=C(O)c1[nH]c2ccccc2c1CC(=O)N1CCCCCC1`, the inhibition is reported as “inactive”.
For `CCCc1nc(CN(CC)C(=O)c2csnn2)no1`, the inhibition was inconclusive: 16%.
In the case of `CN1CCC(O)(Cn2cnc3ccc(F)cc3c2=O)CC1`, the inhibition is reported as inconclusive: 10%.
For `COCCNC(=O)[C@@H](C)[C@@H]1CC[C@@]2(C)CC[C@H](NC(=O)C3CCCCC3)[C@@H](C)[C@@H]2[C@H]1O`, the inhibition was “inactive”.
With `Cc1ccccc1C(=O)Nc1ccc(Br)cc1` the inhibition was “inactive”.
With `CC(=O)N(CN1C(=O)c2ccc(Br)cc2C1=O)c1cccc(C(=O)O)c1` the inhibition was active: 45%.
`COc1cc(/C=C2/N=C(SCC(=O)c3ccccc3)N(c3ccccc3)C2=O)ccc1O` was tested, and the inhibition was inconclusive: 17%.
With `CC(=O)N1CCN(c2ccc(NC(=O)c3ccccc3Cl)cc2)CC1` the inhibition was inconclusive: 10%.
With `CC(C)C1CN(C(=O)Cc2cn3ccsc3n2)CCC(=O)N1CC1CC1` (stereo not given) the inhibition was “inactive”.
With `COc1ccc(C2(C)CC(C)(C)N(C(C)=O)c3ccccc32)cc1` (stereo not given) the inhibition was inconclusive: 12%.
In the case of `Cc1ccc(NS(=O)(=O)c2ccc3[nH]c(=O)c(=O)[nH]c3c2)c(Cl)c1`, the inhibition is reported as active: 37%.
For `O[C@@H]1C[C@@H](c2nc(-c3ccc4c(c3)OCO4)no2)N(Cc2ccc(-c3ccccn3)cc2)C1`, the inhibition was inconclusive: 21%.
In the case of `CCCS(=O)(=O)N1CCCC(C(=O)NC2CCCCC2C)C1` (stereo not given), the inhibition is reported as inconclusive: 12%.
`N=c1n(CC(=O)c2ccco2)c2ccccc2n1Cc1ccccc1` was tested, and the inhibition was inconclusive: 27%.
With `O=C(NC1CCCCC1)C1CCN(S(=O)(=O)c2ccc(Cl)cc2)CC1` the inhibition was inconclusive: 10%.
In the case of `CC12CCC3c4ccc(O)c(Br)c4CCC3C1CCC2O` (stereo not given), the inhibition is reported as “inactive”.
For `CC(C(=O)N(C)C)N(C)Cc1ccccc1C(=O)O` (stereo not given), the inhibition was inconclusive: 13%.
With `CC(=O)c1ccc(NC2=C(N3CCCCC3)C(=O)c3ccccc3C2=O)cc1` the inhibition was active: 59%.
In the case of `CCC(C(=O)N1C[C@@H]2[C@H](C1)[C@H]1CC[C@@H]2O1)n1cccn1` (stereo not given in full), the inhibition is reported as inconclusive: 12%.
With `O=C1NN=C2C1C[C@H]1C[C@@H]2C[C@@H]2C(=O)NN=C12` (stereo not given in full) the inhibition was inconclusive: 28%.
For `CN(C(=O)CCN1Cc2ccccc2C1=O)C1CCCN(CCc2ccccc2)C1` (stereo not given), the inhibition was inconclusive: 10%.
For `CCOC(=O)c1c(NC(=O)c2ccoc2C)sc2c1CCC(C(C)(C)C)C2` (stereo not given), the inhibition was inconclusive: 12%.
`CC1=C(C(=O)Nc2cccnc2)C(c2ccc(O)cc2)n2ncnc2N1` (stereo not given) was tested, and the inhibition was inconclusive: 14%.
For `CN(C)c1nc(-c2cccc(-c3ccn[nH]3)c2)cc(C(F)(F)F)n1`, the inhibition was inconclusive: 26%.
`Cc1oc2ccc(NS(=O)(=O)c3ccc(C(C)(C)C)cc3)cc2c1C(=O)OC(C)C` was tested, and the inhibition was inconclusive: 11%.
With `O=C(COc1ccccc1)Nc1ccc(-c2nc3ncccc3o2)cc1` the inhibition was inconclusive: 28%.
`Cc1oc(-c2ccc(Cl)cc2)nc1CSCC(=O)NCC1CCCO1` (stereo not given) was tested, and the inhibition was “inactive”.
For `c1ccc(CN2C3=NCCN3c3ccccc32)cc1`, the inhibition was inconclusive: 10%.
With `COc1ccc(S(=O)(=O)N(CC(=O)Nc2ccc(F)cc2F)Cc2ccccc2)cc1` the inhibition was “inactive”.
For `Clc1ccccc1OCCCN1CCNCC1`, the inhibition was inconclusive: 11%.
For `CCN(CC)c1ccc(NC(=O)CCS(=O)(=O)c2cccc3nsnc23)c(C)c1`, the inhibition was inconclusive: 17%.
For `CCCCn1c(=N)n(CC(=O)OCC)c2ccccc21`, the inhibition was “inactive”.
For `Cc1cccc(Nc2nc(O)c(C3=c4cc(Br)ccc4=NC3=O)s2)c1C`, the inhibition was active: 42%.
`COc1ccc(OC)c(S(=O)(=O)Nc2ccc(F)c(Cl)c2)c1` was tested, and the inhibition was “inactive”.
`CCNC(=O)c1ccc(-c2cccc(C(=O)O)c2)nc1` was tested, and the inhibition was inconclusive: 11%.
With `Cc1nc(CN(C)Cc2c(-c3ccccc3)nc3ccccn23)no1` the inhibition was inconclusive: 13%.
With `COc1ccc(NC(=O)c2sc3c(Cl)c(OC)ccc3c2Cl)c(OC)c1` the inhibition was “inactive”.
For `CC(c1ccc(-c2ccc(C(=O)O)c(Cl)c2)cc1)N1CCCCC1` (stereo not given), the inhibition was “inactive”.
In the case of `CC(C)c1ccc(CNc2ccc3c(c2)ncn3C(C)(C)C)cc1`, the inhibition is reported as inconclusive: 10%.
`Cc1ccc(S(=O)(=O)c2nc(-c3ccco3)oc2SCC(=O)NC2CCCCC2)cc1` was tested, and the inhibition was “inactive”.
In the case of `NC(=O)c1c(NC(=O)CN2C(=O)c3ccccc3C2=O)sc2c1CCC2`, the inhibition is reported as inconclusive: 18%.
For `CC(C)(C)c1ccc(-c2cc(C[C@H]3CNCC[C@H]3CC(=O)Nc3cccc(O)c3)no2)cc1`, the inhibition was inconclusive: 21%.
With `Oc1ccc(SCCCCN2CCCCC2)cc1` the inhibition was “inactive”.
In the case of `O=C(c1cccn2c(=O)c3sccc3nc12)N1CCc2ccccc2C1`, the inhibition is reported as “inactive”.
`CN1C(=O)/C(=N/OC(=O)c2ccccc2Cl)c2ccccc21` was tested, and the inhibition was inconclusive: 22%.
For `CSc1ccc(-c2nc3nc[nH]n3c2Nc2ccc(C)cc2)cc1`, the inhibition was inconclusive: 19%.
`COc1ccc2nc(CNC(=O)c3ncc[nH]3)[nH]c2c1` was tested, and the inhibition was “inactive”.
With `COc1ccc(NC2C=CS(=O)(=O)C2)cc1` (stereo not given) the inhibition was inconclusive: 11%.
For `COc1cccc(N2CCN(C(=O)c3cccn4c(=O)c5c6c(sc5nc34)CCCC6)CC2)c1`, the inhibition was “inactive”.
In the case of `COc1ccc(C2CC(c3ccc(OC)c(OC)c3)=NN2C(=O)c2ccccc2)cc1` (stereo not given), the inhibition is reported as inconclusive: 14%.
With `CCOc1ccc(C(Nc2ccccn2)c2ccc3ccc(C)nc3c2O)cc1OC` (stereo not given) the inhibition was inconclusive: 25%.
`OCCN1CCN(CCCN2c3ccccc3Sc3ccc(Cl)cc32)CC1` was tested, and the inhibition was inconclusive: 18% and inconclusive: 17%.
In the case of `c1ccc(-n2cccc2CN2CCc3[nH]cnc3C2c2ccsc2)nc1` (stereo not given), the inhibition is reported as inconclusive: 12%.
For `CC12CC(NC(=O)N1c1ccc(F)cc1)c1ccccc1O2` (stereo not given), the inhibition was “inactive”.
For `Cc1ccc(-c2cc(O)c3c(c2)CN(C(=O)CN2CCOC2=O)CCO3)s1`, the inhibition was “inactive”.
`Nc1ncc(CN2CCN(c3cccc(C(F)(F)F)n3)CC2)cn1` was tested, and the inhibition was “inactive”.
In the case of `COC(=O)[C@@H](Cc1cccnc1)NC(=O)[C@H]1CN(C(=O)c2cccnc2)CCN1C(=O)C1CCCCC1`, the inhibition is reported as inconclusive: 12%.
In the case of `CC(=O)Nc1ccc(C2C(C#N)=C(N)OC3=C2C(=O)CC(C)C3)cc1` (stereo not given), the inhibition is reported as “inactive”.
In the case of `COc1ccc(C2CC(=O)C3=C(C2)Nc2ccccc2NC3c2cccc(F)c2)cc1OC` (stereo not given), the inhibition is reported as inconclusive: 12%.
With `OC[C@H]1O[C@@H](Oc2ccc(O)cc2)[C@H](O)[C@@H](O)[C@@H]1O` the inhibition was inconclusive: 16%.
In the case of `Cc1cccc(NC(c2cccc(Cl)c2)c2ccc3cccnc3c2O)n1` (stereo not given), the inhibition is reported as active: 34%.
For `O=Cc1ccc(-c2ccc([N+](=O)[O-])cc2)o1`, the inhibition was inconclusive: 15%.
`CC(C)c1csc(CN2CCN3CCN(C)CC3C2)n1` (stereo not given) was tested, and the inhibition was inconclusive: 14%.
For `CCc1ccc(CNC(=O)CCc2nc(-c3ccc(C)cc3)no2)cc1`, the inhibition was “inactive”.
In the case of `Cc1ccccc1NC(=O)Cn1c(=O)n(-c2ccc(F)cc2F)c(=O)c2sccc21`, the inhibition is reported as “inactive”.
In the case of `CCOc1ccc(C2CC(=O)N3CN(c4ccc(C)cc4)CSC3=C2C#N)cc1` (stereo not given), the inhibition is reported as inconclusive: 20%.
For `Nc1ccc(C(=O)c2ccc(N)c(N)c2)cc1N`, the inhibition was inconclusive: 11%.
`O=C(c1ccc(F)cc1)N1CCN=C1SCc1cccc(Cl)c1` was tested, and the inhibition was “inactive”.
`CSC1=NC2(CCCCC2)C2=C(CCCC2)N1` was tested, and the inhibition was inconclusive: 14%.
With `O=C1Nc2ccccc2N(O)N1c1cccc(Cl)c1` the inhibition was inconclusive: 11%.
`CCCC12CN3CC(C)(CN(C1)C3c1ccc(F)cc1)C2=O` (stereo not given) was tested, and the inhibition was inconclusive: 15%.
